Values of other authors, collected in US5942248A, “Pharmaceutical composition containing a low detergent effect bile salt and an active compound that undergoes biliary excretion and/or enterohepatic recycling” (priority 1992, dated 1999).
At least one read-out could not be matched to a standard name with certainty.

System: human erythrocyte
Details: substantial erythrocyte lysis / no measurable lysis; read-out: erythrocyte lysis concentration; cited from earlier work

## C[C@H](CCC(=O)O)[C@H]1CC[C@H]2[C@@H]3[C@@H](O)C[C@@H]4C[C@H](O)CC[C@]4(C)[C@H]3CC[C@]12C [ursodeoxycholate, Ursodeoxycholate]
  MCC: > 60 mM
